Test results from the supplement of paper PMC5393889.
This is one part of the list.

system: Caenorhabditis elegans N2; assay: aldicarb interaction hit call (worm growth perturbed in combination with 10 uM aldicarb in both replicates, no effect as single agent) (binary (1 = interacts)); higher = interacts with aldicarb (growth perturbed); details: first compound 1.5 µM; aldicarb concentration 10 µM; 6 days; 20 °C

SMILES | aldicarb interaction hit call
O=C(NC(=S)Nc1ccc(F)c(Cl)c1)C1CC1 [wact-227] + CNC(=O)O/N=C/C(C)(C)SC [aldicarb] | inactive: 0
Cc1cc(C(F)F)n2ncc(C(=O)Nc3cnn(Cc4ccc(Cl)cc4Cl)c3)c2n1 [wact-87] + CNC(=O)O/N=C/C(C)(C)SC [aldicarb] | inactive: 0
O=C1CC(c2cccs2)Sc2nc3ccccc3n21 (stereo unspecified) [wact-469] + CNC(=O)O/N=C/C(C)(C)SC [aldicarb] | inactive: 0
FC(F)(F)c1cc(-c2ccc(Br)cc2)[nH]n1 [wact-500] + CNC(=O)O/N=C/C(C)(C)SC [aldicarb] | inactive: 0
Cn1cc(CN2CCCC(C(=O)c3ccc(-c4ccccc4)c(F)c3)C2)cn1 (stereo unspecified) [wact-340] + CNC(=O)O/N=C/C(C)(C)SC [aldicarb] | inactive: 0
CCOc1ccc(C(=O)c2cccs2)cc1 [wact-471] + CNC(=O)O/N=C/C(C)(C)SC [aldicarb] | inactive: 0
CC(C)COc1ccc(-c2nc(-c3cccnc3)no2)cc1 [wact-558] + CNC(=O)O/N=C/C(C)(C)SC [aldicarb] | inactive: 0
O=C(c1cc(COc2ccc3ncccc3c2)on1)N1C[C@H]2CC[C@H]1C2 [wact-290] + CNC(=O)O/N=C/C(C)(C)SC [aldicarb] | inactive: 0
CN1CCN(c2ccc3c(ccc4c5ccccc5[nH]c34)n2)CC1 [wact-612] + CNC(=O)O/N=C/C(C)(C)SC [aldicarb] | inactive: 0
CCOc1cc(Cl)c(S(=O)(=O)NCc2ccncc2)cc1Cl [wact-132] + CNC(=O)O/N=C/C(C)(C)SC [aldicarb] | inactive: 0
S=C(Nc1cccc(Cl)c1)Nc1ccc(Cl)c(Cl)c1 [wact-530] + CNC(=O)O/N=C/C(C)(C)SC [aldicarb] | inactive: 0
N/C(=N\OC(=O)c1ccc(Cl)cc1)c1cccnc1 [wact-599] + CNC(=O)O/N=C/C(C)(C)SC [aldicarb] | inactive: 0
Cc1cccc(-c2ccc(NC(=O)C3CCN(Cc4c(C)nn(C(C)C)c4C)CC3)cc2)c1 [wact-265] + CNC(=O)O/N=C/C(C)(C)SC [aldicarb] | inactive: 0
N/C(=N\OC(=O)COc1ccc(Cl)cc1Br)c1ccncc1 [wact-440] + CNC(=O)O/N=C/C(C)(C)SC [aldicarb] | inactive: 0
Fc1ccc(N2CCN(Cc3cccc(Cl)c3Cl)CC2)cc1 [wact-28] + CNC(=O)O/N=C/C(C)(C)SC [aldicarb] | inactive: 0
COc1ccc(/C=C/c2nc3ccccc3o2)cc1 [wact-382] + CNC(=O)O/N=C/C(C)(C)SC [aldicarb] | inactive: 0
COc1cc(OC)cc(C(=O)N2CCC(C(=O)Nc3ccc(Cl)c(C(F)(F)F)c3)CC2)c1 [wact-491] + CNC(=O)O/N=C/C(C)(C)SC [aldicarb] | inactive: 0
O=[N+]([O-])c1ccc2nc(-c3ccccc3)[nH]c2c1 [wact-363] + CNC(=O)O/N=C/C(C)(C)SC [aldicarb] | inactive: 0
N/C(Cc1cccs1)=N\OC(=O)COc1ccc(Br)cc1 [wact-449] + CNC(=O)O/N=C/C(C)(C)SC [aldicarb] | inactive: 0
O=C(Nc1ccc2ccccc2n1)c1ccccc1 + CNC(=O)O/N=C/C(C)(C)SC [aldicarb] | inactive: 0
C#CCSc1nnc(-c2ccc(C)cc2)o1 [wact-342] + CNC(=O)O/N=C/C(C)(C)SC [aldicarb] | inactive: 0
N/C(=N\OC(=O)c1cc(Br)ccc1Cl)c1ccncc1 [wact-105] + CNC(=O)O/N=C/C(C)(C)SC [aldicarb] | inactive: 0
Brc1ccccc1Nc1nc(-c2ccccn2)cs1 [wact-546] + CNC(=O)O/N=C/C(C)(C)SC [aldicarb] | inactive: 0
Cc1cccc(C(=O)N2CCN(c3ccc([N+](=O)[O-])cc3)CC2)c1 [wact-217] + CNC(=O)O/N=C/C(C)(C)SC [aldicarb] | inactive: 0
O=C(Cc1cccc(F)c1)Nc1ccc(Cl)cc1 [wact-141] + CNC(=O)O/N=C/C(C)(C)SC [aldicarb] | inactive: 0
CCN1CCN(c2ccc(NC(=O)c3ccco3)cc2Cl)CC1 [wact-99] + CNC(=O)O/N=C/C(C)(C)SC [aldicarb] | inactive: 0

Nothing new here: an excerpt of the list.
SMILES | aldicarb interaction hit call
CC(C)COc1ccc(-c2nc(-c3cccnc3)no2)cc1 [wact-558] + CNC(=O)O/N=C/C(C)(C)SC [aldicarb] | inactive: 0
O=C(c1cc(COc2ccc3ncccc3c2)on1)N1C[C@H]2CC[C@H]1C2 [wact-290] + CNC(=O)O/N=C/C(C)(C)SC [aldicarb] | inactive: 0
